According to article PMC5939605, “Highly luminescent, biocompatible ytterbium(III) complexes as near-infrared fluorophores for living cell imaging” (Chemical Science, 2018):

Test system: HeLa cells
Assay: ICP spectrometry for cellular uptake quantification
Type: cell-based
Conditions: HeLa cells incubated with 10 μM complex for 12 h

SMILES	Concentration of Yb3+ in 1x106 cells [μg/mL]
OC[C@H]1O[C@@H](Oc2ccc(C3=C4N=C(C(F)=C4F)C(c4ccc(O[C@@H]5O[C@H](CO)[C@@H](O)[C@H](O)[C@H]5O)cc4)=c4c(F)c(F)c5[n]4[Yb+][n]4c3c(F)c(F)c4C(c3ccc(O[C@@H]4O[C@H](CO)[C@@H](O)[C@H](O)[C@H]4O)cc3)=C3N=C(C(F)=C3F)C=5c3ccc(O[C@@H]4O[C@H](CO)[C@@H](O)[C@H](O)[C@H]4O)cc3)cc2)[C@H](O)[C@@H](O)[C@@H]1O.[2H]C([2H])([2H])O[P](=O)(OC([2H])([2H])[2H])[Co-]([CH]1C=CC=C1)([P](=O)(OC([2H])([2H])[2H])OC([2H])([2H])[2H])[P](=O)(OC([2H])([2H])[2H])OC([2H])([2H])[2H] [Yb-1]	0.0259±0.0217
O=C(O)c1ccc(C2=C3C=CC(=N3)C(c3c(F)c(F)c(F)c(F)c3F)=c3ccc4[n]3[Yb+][n]3c2ccc3C(c2c(F)c(F)c(F)c(F)c2F)=C2C=CC(=N2)C=4c2c(F)c(F)c(F)c(F)c2F)cc1.[2H]C([2H])([2H])O[P](=O)(OC([2H])([2H])[2H])[Co-]([CH]1C=CC=C1)([P](=O)(OC([2H])([2H])[2H])OC([2H])([2H])[2H])[P](=O)(OC([2H])([2H])[2H])OC([2H])([2H])[2H] [Yb-2c]	0.2190±0.0549
FC1=C(F)C2=C(c3ccc(C[P+](c4ccccc4)(c4ccccc4)c4ccccc4)cc3)c3c(F)c(F)c4[n]3[Yb+][n]3c(c(F)c(F)c3=C(c3ccc(C[P+](c5ccccc5)(c5ccccc5)c5ccccc5)cc3)C3=NC(=C4c4ccc(C[P+](c5ccccc5)(c5ccccc5)c5ccccc5)cc4)C(F)=C3F)=C(c3ccc(C[P+](c4ccccc4)(c4ccccc4)c4ccccc4)cc3)C1=N2.[2H]C([2H])([2H])O[P](=O)(OC([2H])([2H])[2H])[Co-]([CH]1C=CC=C1)([P](=O)(OC([2H])([2H])[2H])OC([2H])([2H])[2H])[P](=O)(OC([2H])([2H])[2H])OC([2H])([2H])[2H].[Cl-].[Cl-].[Cl-].[Cl-] [Yb-3]	0.1542±0.0388
C1=CC2=C(c3ccc(C[P+](c4ccccc4)(c4ccccc4)c4ccccc4)cc3)c3ccc4[n]3[Yb+][n]3c(ccc3=C(c3ccc(C[P+](c5ccccc5)(c5ccccc5)c5ccccc5)cc3)C3=NC(=C4c4ccc(C[P+](c5ccccc5)(c5ccccc5)c5ccccc5)cc4)C=C3)=C(c3ccc(C[P+](c4ccccc4)(c4ccccc4)c4ccccc4)cc3)C1=N2.[2H]C([2H])([2H])O[P](=O)(OC([2H])([2H])[2H])[Co-]([CH]1C=CC=C1)([P](=O)(OC([2H])([2H])[2H])OC([2H])([2H])[2H])[P](=O)(OC([2H])([2H])[2H])OC([2H])([2H])[2H].[Cl-].[Cl-].[Cl-].[Cl-] [Yb-3c]	0.2796±0.0431
C[N+]1(C)CC2(F)C3=NC(=C(c4c(F)c(F)c(F)c(F)c4F)c4c(F)c(F)c5[n]4[Yb+][n]4c(c(F)c(F)c4=C3c3c(F)c(F)c(F)c(F)c3F)=C(c3c(F)c(F)c(F)c(F)c3F)C3=NC(=C5c4c(F)c(F)c(F)c(F)c4F)C(F)=C3F)C2(F)C1.[2H]C([2H])([2H])O[P](=O)(OC([2H])([2H])[2H])[Co-]([CH]1C=CC=C1)([P](=O)(OC([2H])([2H])[2H])OC([2H])([2H])[2H])[P](=O)(OC([2H])([2H])[2H])OC([2H])([2H])[2H].[I-] (stereo not drawn) [Yb-4]	0.1286±0.0441
C[N+]1(C)CC2C3=NC(=C(c4c(F)c(F)c(F)c(F)c4F)c4ccc5[n]4[Yb+][n]4c(ccc4=C3c3c(F)c(F)c(F)c(F)c3F)=C(c3c(F)c(F)c(F)c(F)c3F)C3=NC(=C5c4c(F)c(F)c(F)c(F)c4F)C=C3)C2C1.[2H]C([2H])([2H])O[P](=O)(OC([2H])([2H])[2H])[Co-]([CH]1C=CC=C1)([P](=O)(OC([2H])([2H])[2H])OC([2H])([2H])[2H])[P](=O)(OC([2H])([2H])[2H])OC([2H])([2H])[2H].[I-] (stereo not drawn) [Yb-4c]	0.2578±0.0272
